Results: paper PMC9448835
Results are given in words; binding and its absence hold for the method and conditions named. Binding calls can cover weak binding; strength is not graded here. Tags and fused reporters may be left off the sequences shown. For part of these data: In cells and extracts the contact can be indirect.

Columns and labels:
[1] = target: OsFTL4 (GAL4-BD fusion, yeast two-hybrid bait) (rice (Oryza sativa L.)); assay: two-hybrid; GAL4-BD fusion as bait, GAL4-AD fusion as prey, co-transformed into Y2HGold yeast; growth on SD/-Trp/-Leu/-His/-Ade (QDO); 3-AT 25 mM (Fig. 5a)
[2] = target: OsFTL4 (nLUC fusion, LCI assay) (rice (Oryza sativa L.)); assay: split reporter; luciferase complementation imaging (LCI): nLUC and cLUC fusions co-expressed in N. benthamiana leaves by agroinfiltration; luminescence imaged

| Binder | binding [1] | binding [2] |
| --- | --- | --- |
| GF14a (GAL4-AD fusion, yeast two-hybrid prey) (protein, UniProt Q84J55 1-264) MAAAAGGGTREEMVYMAKLAEQAERYEEMVEFMEKVVTAAAAGGGGELTVEERNLLSVAYKNVIGARRASWRIVSSIEQKEEGRGAAGHAAAARSYRARVEAELSNICAGILRLLDERLVPAAAAVDAKVFYLKMKGDYHRYLAEFKTGAERKDAADATLAAYQAAQDIAMKELSPTHPIRLGLALNFSVFYYEILNSPDRACTLAKQAFDEAISELDTLGEESYKDSTLIMQLLRDNLTLWTSDMQDDGGDEMRDATKPEDEH | binds | – |
| GF14a (cLUC fusion, LCI assay) (protein, UniProt Q84J55 1-264) MAAAAGGGTREEMVYMAKLAEQAERYEEMVEFMEKVVTAAAAGGGGELTVEERNLLSVAYKNVIGARRASWRIVSSIEQKEEGRGAAGHAAAARSYRARVEAELSNICAGILRLLDERLVPAAAAVDAKVFYLKMKGDYHRYLAEFKTGAERKDAADATLAAYQAAQDIAMKELSPTHPIRLGLALNFSVFYYEILNSPDRACTLAKQAFDEAISELDTLGEESYKDSTLIMQLLRDNLTLWTSDMQDDGGDEMRDATKPEDEH | – | binds |
| GF14f (GAL4-AD fusion, yeast two-hybrid prey) (protein, UniProt Q06967 1-260) MSPAEASREENVYMAKLAEQAERYEEMVEFMEKVAKTTDVGELTVEERNLLSVAYKNVIGARRASWRIISSIEQKEESRGNEAYVASIKEYRSRIETELSKICDGILKLLDSHLVPSATAAESKVFYLKMKGDYHRYLAEFKSGAERKEAAENTLVAYKSAQDIALADLPTTHPIRLGLALNFSVFYYEILNSPDRACNLAKQAFDDAIAELDTLGEESYKDSTLIMQLLRDNLTLWTSDNAEDGGDEIKEAAKPEGEGH | binds | – |
| GF14c (cLUC fusion, LCI assay) (protein, UniProt Q6ZKC0 1-256) MSREENVYMAKLAEQAERYEEMVEYMEKVAKTVDVEELTVEERNLLSVAYKNVIGARRASWRIVSSIEQKEEGRGNEEHVTLIKEYRGKIEAELSKICDGILKLLDSHLVPSSTAAESKVFYLKMKGDYHRYLAEFKTGAERKEAAESTMVAYKAAQDIALADLAPTHPIRLGLALNFSVFYYEILNSPDKACNLAKQAFDEAISELDTLGEESYKDSTLIMQLLRDNLTLWTSDLTEDGGDEVKEASKGDACEGQ | – | binds |
| GF14c (GAL4-AD fusion, yeast two-hybrid prey) (protein, UniProt Q6ZKC0 1-256) MSREENVYMAKLAEQAERYEEMVEYMEKVAKTVDVEELTVEERNLLSVAYKNVIGARRASWRIVSSIEQKEEGRGNEEHVTLIKEYRGKIEAELSKICDGILKLLDSHLVPSSTAAESKVFYLKMKGDYHRYLAEFKTGAERKEAAESTMVAYKAAQDIALADLAPTHPIRLGLALNFSVFYYEILNSPDKACNLAKQAFDEAISELDTLGEESYKDSTLIMQLLRDNLTLWTSDLTEDGGDEVKEASKGDACEGQ | binds | – |
| GF14d (cLUC fusion, LCI assay) (protein, UniProt Q2R2W2 1-265) MSPAEPTREESVYKAKLAEQAERYEEMVEYMERVARAAGGASGGEELTVEERNLLSVAYKNVIGARRASWRIISSIEQKEEGRGNDAHAATIRSYRGKIEAELARICDGILALLDSHLVPSAGAAESKVFYLKMKGDYHRYLAEFKSGDERKQAAESTMNAYKAAQDIALADLAPTHPIRLGLALNFSVFYYEILNSPDRACNLAKQAFDEAISELDSLGEESYKDSTLIMQLLRDNLTLWTSDANDDGGDEIKEAAAPKEPGDQ | – | binds |
| GF14d (GAL4-AD fusion, yeast two-hybrid prey) (protein, UniProt Q2R2W2 1-265) MSPAEPTREESVYKAKLAEQAERYEEMVEYMERVARAAGGASGGEELTVEERNLLSVAYKNVIGARRASWRIISSIEQKEEGRGNDAHAATIRSYRGKIEAELARICDGILALLDSHLVPSAGAAESKVFYLKMKGDYHRYLAEFKSGDERKQAAESTMNAYKAAQDIALADLAPTHPIRLGLALNFSVFYYEILNSPDRACNLAKQAFDEAISELDSLGEESYKDSTLIMQLLRDNLTLWTSDANDDGGDEIKEAAAPKEPGDQ | binds | – |

Further lines, results first:

| binding [1] | binding [2] | Binder |
| --- | --- | --- |
| no binding | – | GF14g (GAL4-AD fusion, yeast two-hybrid prey) (protein, UniProt Q5QNB8 1-257) MAPSDDLVYMAKLAEQAERYDEMVEAMNSVAKLDEGLTKEERNLLSVGYKNLIGAKRAAMRIIGSIELKEETKGKESHVRQTAEYRRKVEAEMDKICCDVINIIDKYLIPHSSGAESSVFYYKMKGDYYRYLAEFKTGTEKIEVSELSLNAYETASKTAQTDLTPTDPIRLGLALNISVFYCEIMNSPDKACQLAKNAFDEAVAELPSLSEENYKDSTLIMQLLRDNLALWNSDMADDADDIRERTDTTGAKGDPAA |
| – | no binding | GF14g (cLUC fusion, LCI assay) (protein, UniProt Q5QNB8 1-257) MAPSDDLVYMAKLAEQAERYDEMVEAMNSVAKLDEGLTKEERNLLSVGYKNLIGAKRAAMRIIGSIELKEETKGKESHVRQTAEYRRKVEAEMDKICCDVINIIDKYLIPHSSGAESSVFYYKMKGDYYRYLAEFKTGTEKIEVSELSLNAYETASKTAQTDLTPTDPIRLGLALNISVFYCEIMNSPDKACQLAKNAFDEAVAELPSLSEENYKDSTLIMQLLRDNLALWNSDMADDADDIRERTDTTGAKGDPAA |
| – | binds | GF14f (cLUC fusion, LCI assay) (protein, UniProt Q06967 1-260) MSPAEASREENVYMAKLAEQAERYEEMVEFMEKVAKTTDVGELTVEERNLLSVAYKNVIGARRASWRIISSIEQKEESRGNEAYVASIKEYRSRIETELSKICDGILKLLDSHLVPSATAAESKVFYLKMKGDYHRYLAEFKSGAERKEAAENTLVAYKSAQDIALADLPTTHPIRLGLALNFSVFYYEILNSPDRACNLAKQAFDDAIAELDTLGEESYKDSTLIMQLLRDNLTLWTSDNAEDGGDEIKEAAKPEGEGH |
| – | binds | GF14h (cLUC fusion, LCI assay) (protein, UniProt Q2R1D5 1-230) MKEREKVVRLAKLAEQAERYDDMVEFMKTLARMDVDMSAEERLLFSVGFKKTIGARRASWRILESLEQKVTAGDQPGVTINGYKKKVEDELRAVCNEVLSIIAIHCLPLANSGENVVFFYKMKGDYYRYLAEFSTGTEKKAATDQSLMAYQAWPCAQLFSLLEIMNSPERASQVAKQALDEATAEINSAGVEGYKDSMLMMQLLKENLALWTSELTGGETSKDDDVVMEG |
| binds | – | GF14h (GAL4-AD fusion, yeast two-hybrid prey) (protein, UniProt Q2R1D5 1-230) MKEREKVVRLAKLAEQAERYDDMVEFMKTLARMDVDMSAEERLLFSVGFKKTIGARRASWRILESLEQKVTAGDQPGVTINGYKKKVEDELRAVCNEVLSIIAIHCLPLANSGENVVFFYKMKGDYYRYLAEFSTGTEKKAATDQSLMAYQAWPCAQLFSLLEIMNSPERASQVAKQALDEATAEINSAGVEGYKDSMLMMQLLKENLALWTSELTGGETSKDDDVVMEG |
